This is an account of results in publication PMC8523171, “The cooperative binding of TDP-43 to GU-rich RNA repeats antagonizes TDP-43 aggregation”.

The chains behind the UniProt entries cited, without tags or fusion partners. Residues count along the entry.
UniProt Q13148, 176-277: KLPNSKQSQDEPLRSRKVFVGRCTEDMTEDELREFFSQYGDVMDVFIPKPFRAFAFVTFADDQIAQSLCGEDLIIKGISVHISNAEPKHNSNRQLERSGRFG
UniProt Q13148, 101-192: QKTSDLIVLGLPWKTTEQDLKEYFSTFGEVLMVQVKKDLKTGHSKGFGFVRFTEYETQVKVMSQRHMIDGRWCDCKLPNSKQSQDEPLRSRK

For at least one entry, the source does not settle the construct or the ends of the probe. At least one verdict rests on a figure or table, not on a statement of the authors.

Series [1] addresses TDP-43 RRM2 (human) (UniProt Q13148). Kind of series: ITC. The settings on record: no clear plateaus, at least tetramers possible, Kd not in material; ITC: 15 mM phosphate pH 6.8, 25 mM KCl, 1 mM TCEP, 25 C; recombinant protein; residues 176-277; protein details: His6 cleaved by TEV; single-stranded DNA.
Series [2] shares this target. Kind of series: NMR. The settings on record: lower affinity than RRM1; NMR: same buffer, 298 K (SEA-HSQC 310 K); recombinant protein; residues 176-277; protein details: His6 cleaved by TEV.
Series [3] deals with TDP-43 RRM1 (human) (UniProt Q13148). Nature of the series: NMR. The settings on record: NMR: same buffer, 298 K (SEA-HSQC 310 K); recombinant protein; residues 101-192; protein details: His6 cleaved by TEV.

As to GTGTGTGTGTGTGTGTGTGTGTGT [(GT)12], the binding result in series [1] is on record as “binds”.

As to GUGUGUGUGUGUGUGUGUGUGUGU [(GU)12], the binding result in series [2] and in series [3] was “binds” throughout.
